This passage reports binding results from publication PMC9870992.

The chains behind the UniProt entries cited, without tags or fusion partners.
UniProt P78347: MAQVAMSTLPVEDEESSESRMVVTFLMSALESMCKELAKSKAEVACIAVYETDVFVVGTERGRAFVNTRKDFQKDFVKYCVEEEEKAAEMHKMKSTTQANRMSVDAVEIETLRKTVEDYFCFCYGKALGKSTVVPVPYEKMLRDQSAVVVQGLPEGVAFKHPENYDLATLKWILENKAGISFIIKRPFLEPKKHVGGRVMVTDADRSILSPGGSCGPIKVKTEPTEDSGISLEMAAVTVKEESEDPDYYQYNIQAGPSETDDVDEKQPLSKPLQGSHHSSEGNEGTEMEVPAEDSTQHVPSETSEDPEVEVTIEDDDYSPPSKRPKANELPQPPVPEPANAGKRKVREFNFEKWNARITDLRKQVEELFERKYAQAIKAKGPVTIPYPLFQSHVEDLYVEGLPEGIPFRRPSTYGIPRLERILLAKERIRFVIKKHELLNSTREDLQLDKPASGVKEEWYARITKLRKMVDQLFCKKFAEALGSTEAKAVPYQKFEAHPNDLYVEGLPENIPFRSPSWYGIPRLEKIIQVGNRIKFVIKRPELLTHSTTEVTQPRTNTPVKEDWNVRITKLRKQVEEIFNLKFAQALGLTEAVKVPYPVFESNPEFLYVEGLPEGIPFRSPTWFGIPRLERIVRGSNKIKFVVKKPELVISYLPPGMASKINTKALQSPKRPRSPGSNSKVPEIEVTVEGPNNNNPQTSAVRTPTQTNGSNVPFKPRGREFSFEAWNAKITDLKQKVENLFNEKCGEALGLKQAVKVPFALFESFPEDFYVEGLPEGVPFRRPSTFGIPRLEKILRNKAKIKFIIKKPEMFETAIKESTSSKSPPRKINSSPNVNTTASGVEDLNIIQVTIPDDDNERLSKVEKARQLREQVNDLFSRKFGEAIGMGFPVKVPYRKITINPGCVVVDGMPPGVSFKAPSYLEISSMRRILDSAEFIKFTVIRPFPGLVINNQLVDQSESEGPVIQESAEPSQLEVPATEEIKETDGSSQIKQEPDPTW

The target in the assay is TFII-I-TurboID-Myc (UniProt P78347). In words: proximity labelling; Bio-ID in HEK293T transfected with TurboID fusions; 500 μM biotin for 1 h; endogenous TRIM24 immunoprecipitated and blotted with Streptavidin-HRP.

These are yes or no findings as the source states them, for the method shown. In cells and extracts the contact can be indirect. Here binding means that the protein was enriched with, or labelled near, the bait; the list need not be complete.

B1: endogenous TRIM24 (protein, UniProt O15164 1-1050)
chain: MEVAVEKAVAAAAAASAAASGGPSAAPSGENEAESRQGPDSERGGEAARLNLLDTCAVCHQNIQSRAPKLLPCLHSFCQRCLPAPQRYLMLPAPMLGSAETPPPVPAPGSPVSGSSPFATQVGVIRCPVCSQECAERHIIDNFFVKDTTEVPSSTVEKSNQVCTSCEDNAEANGFCVECVEWLCKTCIRAHQRVKFTKDHTVRQKEEVSPEAVGVTSQRPVFCPFHKKEQLKLYCETCDKLTCRDCQLLEHKEHRYQFIEEAFQNQKVIIDTLITKLMEKTKYIKFTGNQIQNRIIEVNQNQKQVEQDIKVAIFTLMVEINKKGKALLHQLESLAKDHRMKLMQQQQEVAGLSKQLEHVMHFSKWAVSSGSSTALLYSKRLITYRLRHLLRARCDASPVTNNTIQFHCDPSFWAQNIINLGSLVIEDKESQPQMPKQNPVVEQNSQPPSGLSSNQLSKFPTQISLAQLRLQHMQQQVMAQRQQVQRRPAPVGLPNPRMQGPIQQPSISHQQPPPRLINFQNHSPKPNGPVLPPHPQQLRYPPNQNIPRQAIKPNPLQMAFLAQQAIKQWQISSGQGTPSTTNSTSSTPSSPTITSAAGYDGKAFGSPMIDLSSPVGGSYNLPSLPDIDCSSTIMLDNIVRKDTNIDHGQPRPPSNRTVQSPNSSVPSPGLAGPVTMTSVHPPIRSPSASSVGSRGSSGSSSKPAGADSTHKVPVVMLEPIRIKQENSGPPENYDFPVVIVKQESDEESRPQNANYPRSILTSLLLNSSQSSTSEETVLRSDAPDSTGDQPGLHQDNSSNGKSEWLDPSQKSPLHVGETRKEDDPNEDWCAVCQNGGELLCCEKCPKVFHLSCHVPTLTNFPSGEWICTFCRDLSKPEVEYDCDAPSHNSEKKKTEGLVKLTPIDKRKCERLLLFLYCHEMSLAFQDPVPLTVPDYYKIIKNPMDLSTIKKRLQEDYSMYSKPEDFVADFRLIFQNCAEFNEPDSEVANAGIKLENYFEELLKNLYPEKRFPKPEFRNESEDNKFSDDSDDDFVQPRKKRLKSIEERQLLK
In the case of B1, the binding entry was “binds”.
